Measured values reported in patent publication US10988477B2 (Merck Patent GmbH, priority 2018, dated 2021).
The structures given here were assigned with low confidence; some may be wrong.

Sequences of proteins named here, by UniProt entry; tags and fusion partners are left off.
UniProt Q9P2K8, whole entry: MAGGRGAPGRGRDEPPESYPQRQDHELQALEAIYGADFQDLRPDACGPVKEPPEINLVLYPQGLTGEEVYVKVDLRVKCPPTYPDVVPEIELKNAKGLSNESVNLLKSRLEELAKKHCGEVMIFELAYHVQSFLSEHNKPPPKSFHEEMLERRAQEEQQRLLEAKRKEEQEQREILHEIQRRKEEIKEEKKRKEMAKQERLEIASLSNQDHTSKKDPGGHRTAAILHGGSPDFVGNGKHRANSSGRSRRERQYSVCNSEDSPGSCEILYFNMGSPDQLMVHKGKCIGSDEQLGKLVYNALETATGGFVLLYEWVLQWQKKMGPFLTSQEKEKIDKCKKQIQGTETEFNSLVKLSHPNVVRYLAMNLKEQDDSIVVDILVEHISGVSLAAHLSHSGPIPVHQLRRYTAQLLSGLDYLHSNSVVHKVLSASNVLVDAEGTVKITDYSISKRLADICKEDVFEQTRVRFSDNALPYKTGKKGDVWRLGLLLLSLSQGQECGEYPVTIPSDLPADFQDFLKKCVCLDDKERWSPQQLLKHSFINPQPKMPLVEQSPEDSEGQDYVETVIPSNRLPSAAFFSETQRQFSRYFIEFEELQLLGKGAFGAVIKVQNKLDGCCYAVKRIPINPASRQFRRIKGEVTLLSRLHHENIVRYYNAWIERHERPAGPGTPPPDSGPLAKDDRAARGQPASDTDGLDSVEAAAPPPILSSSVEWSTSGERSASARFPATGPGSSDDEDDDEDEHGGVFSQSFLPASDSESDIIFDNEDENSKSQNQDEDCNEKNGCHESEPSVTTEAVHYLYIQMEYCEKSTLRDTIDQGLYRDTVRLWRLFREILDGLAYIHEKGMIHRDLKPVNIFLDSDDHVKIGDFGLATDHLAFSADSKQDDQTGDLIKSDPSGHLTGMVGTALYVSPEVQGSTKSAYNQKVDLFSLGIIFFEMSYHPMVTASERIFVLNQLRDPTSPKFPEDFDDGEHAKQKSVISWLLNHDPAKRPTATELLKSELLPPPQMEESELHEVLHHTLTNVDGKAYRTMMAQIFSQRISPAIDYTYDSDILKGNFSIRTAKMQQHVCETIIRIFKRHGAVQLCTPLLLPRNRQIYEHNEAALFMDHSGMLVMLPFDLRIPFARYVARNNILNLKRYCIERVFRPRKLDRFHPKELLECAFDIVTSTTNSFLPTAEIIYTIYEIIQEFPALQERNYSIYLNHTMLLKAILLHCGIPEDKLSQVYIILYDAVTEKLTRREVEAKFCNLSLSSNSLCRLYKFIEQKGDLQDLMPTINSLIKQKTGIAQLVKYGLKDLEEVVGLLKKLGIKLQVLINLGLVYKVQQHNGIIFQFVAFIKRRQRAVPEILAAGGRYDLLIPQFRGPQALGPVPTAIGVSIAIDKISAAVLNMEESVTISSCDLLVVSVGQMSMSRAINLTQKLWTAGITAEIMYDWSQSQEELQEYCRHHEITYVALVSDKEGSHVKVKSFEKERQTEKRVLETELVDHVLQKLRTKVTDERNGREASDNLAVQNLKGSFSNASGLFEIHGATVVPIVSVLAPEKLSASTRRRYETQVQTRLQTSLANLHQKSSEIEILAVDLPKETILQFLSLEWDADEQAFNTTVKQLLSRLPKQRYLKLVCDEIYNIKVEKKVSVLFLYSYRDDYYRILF

What was measured:
[1] = molecular target: GCN2 kinase (Homo sapiens, UniProt Q9P2K8); assay: GCN2 enzyme inhibition assay (Transcreener ADP2 fluorescence polarization); conditions: read-out: GCN2 (Ki); Enzyme activity for compounds of Formula IV; Ki(app), 280 μM ATP, 25° C.
Protocol: Compounds were screened for their ability to inhibit GCN2 kinase activity using a Transcreener® ADP^2 fluorescence polarization assay that detects ADP levels (BellBrook Labs, WI). Assays were carried out in a buffer consisting of 25 mM Tris-HCl (pH 7.5), 50 mM NaCl, 10 mM MgCl2 and 1 mM DTT. Final substrate concentrations were 280 μM ATP and 200 μM peptidic substrate (H-[…]OH [(RS)7], Bachem, Switzerland). Assays were carried out at 25° C. in the presence of a (typical) final concentration of 4 nM GCN2 kinase.
An assay buffer containing GCN2 kinase and (RS)7 was prepared. 4.7 μL of this stock solution was placed per well of a black, low volume, 384-well microtitre plate (e.g. catalogue number 3676, Corning Inc., NY). […] The reaction was left to incubate for 1 hour at 25° C., prior to measuring the fluorescence polarisation signal (mP) in each well using a PHERAstar FS reader (BMG Labtech, Germany).
Fluorescence polarization values were normalized to an in plate standard curve consisting of various ratios of ATP to ADP in assay buffer to a final total concentration of 280 μM. […] Percentage inhibition of enzyme activity was then calculated at each compound dose. IC50 and Ki(app) (using known assay and kinetic parameters) values were calculated from percentage inhibition data using a non-linear, tight-binding algorithm. […]

[2] = molecular target: intracellular GCN2 (phosphorylation of the GCN2 substrate eIF2α) (Homo sapiens, UniProt Q9P2K8); assay: GCN2 cellular inhibition assay (AlphaScreen SureFire P-eIF2α Ser51, borrelidin-treated U2OS cells); conditions: read-out: GCN2 Biomarker (IC50), compounds of Formula IV, phosphorylated eIF2α Ser51 in borrelidin-treated U2OS cells
Protocol: Compounds can be screened for their ability to inhibit intracellular GCN2 using an AlphaScreen assay (Perkin Elmer) to detect phosphorylation of the GCN2 substrate eIF2α in borrelidin-treated cells. U2OS cells are plated at 5,000 cells per well in 384-well white polystyrene plates (Corning 3570) in McCoy's 5 A media (GIBCO 26600-023) supplemented with 10% foetal bovine serum (SAFC 12103C), Penicillin/Streptomycin solution diluted 1:100 (Sigma P0781), and 2 mM L-glutamine (Sigma G7513), and allowed to adhere overnight at 37° C. in 5% CO2. Compounds are then added to the cell media from a final concentration of 40 μM in 4-fold serial dilutions. Borrelidin (FluoroChem M01440) is immediately added to the wells to a final concentration of 10 μM and the cells are incubated for 1 h at 37° C. in 5% CO2. After 1 h of treatment with borrelidin, the media is removed, and the cells are lysed with lysis buffer (TGR BioSciences TGRLB) at ambient temperature.
An AlphaScreen SureFire P-eIF2α (Ser51) assay kit (Perkin Elmer TGREIF2S) was used to measure levels of eIF2α phosphorylated on Serine 51. […]
Plates are analyzed on an Alpha Technology-compatible PHERAstar FS plate reader (BMG Labtech Version 1.14) to quantify phosphorylated eIF2α Ser51 levels. The percentage inhibition of phosphorylated eIF2α is calculated by comparison to control wells stimulated with borrelidin alone.

Row | SMILES | Ki [1] [nM] | IC50 [2] [nM]
1 | CC1CN(c2ccnc(-c3cnc4cnc(C(F)(F)F)cn34)n2)C(C)C(c2c[nH]cn2)N1 (stereo not drawn) | 10 to 100 | 
2 | C[C@@H]1NC[C@H](C)N(c2ccnc(-c3cnc4cnc(Br)cn34)n2)[C@@H]1c1c[nH]cn1 (relative stereo) | 10 to 100 | 500 to 5000
